Measured values as given in patent publication US20120059034A1, “NOVEL CRYSTALLINE HYDRATE, AMORPHOUS AND POLYMORPHIC FORMS OF DIHYDRO-BENZOXAZOLE-6-YL-ACETAMIDE DERIVATIVE AND PROCESSES FOR THEIR PREPARATION” (priority 2009, published 2012).
The name of at least one read-out is uncertain.

Assay: Pharmacokinetic profile in dogs (plasma concentrations by validated HPLC(UV) method)
Format: in vivo
Settings: 5 mg/kg dose adjusted to the anhydrous active substance
Procedure: Another essential value of the dihydrate Form is the observed better pharmacokinetic profile in dogs compared to the anhydrate Form A. Both forms in 5 mg/kg dose adjusted to the anhydrous active substance were administered to dogs and relevant pharmacokinetic parameters (AUC, Cmax) were calculated from the plasma profiles of the individual animals. The animals were […] seventeen hours before and six hours after drug administration. Plasma concentrations were measured in the trial samples taken up to 24 hours post dose by a validated HPLC(UV) method.

O=C(Nc1ccc2[nH]c(=O)oc2c1)C(=O)N1CCC(Cc2ccc(F)cc2)CC1 [dihydrate Form, 2-[4-(4-Fluorobenzyl)-piperidin-1-yl]-2-oxo-N-(2-oxo-2,3-dihydro-benzoxazol-6-yl)-acetamide dihydrate]
bioavailability as compared to the anhydrate Form A: better bioavailability
